Laboratory results: paper doi:10.1101/2025.07.07.663452
Results are given in words; binding and its absence hold for the method and conditions named. In cells and extracts the contact can be indirect. Some binding calls cover weakened binding; strength is not graded here.

By UniProt entry, the sequences of proteins in these tests, tags left out. Where a name states a change or a piece, a line headed by the entry shows the natural chain unless it says otherwise.
UniProt P45974: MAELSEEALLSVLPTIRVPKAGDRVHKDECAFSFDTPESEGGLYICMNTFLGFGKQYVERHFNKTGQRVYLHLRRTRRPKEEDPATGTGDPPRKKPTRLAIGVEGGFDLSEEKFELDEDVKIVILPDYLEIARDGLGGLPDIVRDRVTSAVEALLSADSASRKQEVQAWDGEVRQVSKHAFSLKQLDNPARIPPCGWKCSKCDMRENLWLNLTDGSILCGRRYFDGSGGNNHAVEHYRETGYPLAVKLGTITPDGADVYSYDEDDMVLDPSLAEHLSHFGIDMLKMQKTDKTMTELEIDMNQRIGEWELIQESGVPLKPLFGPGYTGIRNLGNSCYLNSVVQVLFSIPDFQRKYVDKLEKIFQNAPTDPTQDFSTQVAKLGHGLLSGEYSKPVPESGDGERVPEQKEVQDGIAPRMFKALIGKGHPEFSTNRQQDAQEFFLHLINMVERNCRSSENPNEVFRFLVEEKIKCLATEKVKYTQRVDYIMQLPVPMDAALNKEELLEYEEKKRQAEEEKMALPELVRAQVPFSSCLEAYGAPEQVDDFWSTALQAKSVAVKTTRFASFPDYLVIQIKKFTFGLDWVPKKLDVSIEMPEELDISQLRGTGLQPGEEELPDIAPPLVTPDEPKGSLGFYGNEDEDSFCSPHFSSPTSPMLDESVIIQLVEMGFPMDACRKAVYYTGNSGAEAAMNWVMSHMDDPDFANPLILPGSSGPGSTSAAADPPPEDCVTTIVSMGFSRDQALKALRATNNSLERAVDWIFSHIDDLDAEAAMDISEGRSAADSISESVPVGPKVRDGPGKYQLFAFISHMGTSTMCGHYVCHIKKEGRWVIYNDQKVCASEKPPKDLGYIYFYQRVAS
UniProt Q9Z120: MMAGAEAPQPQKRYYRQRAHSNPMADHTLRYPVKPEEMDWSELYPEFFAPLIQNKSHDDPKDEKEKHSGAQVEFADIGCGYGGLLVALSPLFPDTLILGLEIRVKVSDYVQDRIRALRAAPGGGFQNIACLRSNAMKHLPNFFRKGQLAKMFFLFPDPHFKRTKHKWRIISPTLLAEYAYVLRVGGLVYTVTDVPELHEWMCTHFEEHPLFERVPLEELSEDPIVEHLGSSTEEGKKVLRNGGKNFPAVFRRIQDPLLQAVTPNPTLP
UniProt Q9UBP6: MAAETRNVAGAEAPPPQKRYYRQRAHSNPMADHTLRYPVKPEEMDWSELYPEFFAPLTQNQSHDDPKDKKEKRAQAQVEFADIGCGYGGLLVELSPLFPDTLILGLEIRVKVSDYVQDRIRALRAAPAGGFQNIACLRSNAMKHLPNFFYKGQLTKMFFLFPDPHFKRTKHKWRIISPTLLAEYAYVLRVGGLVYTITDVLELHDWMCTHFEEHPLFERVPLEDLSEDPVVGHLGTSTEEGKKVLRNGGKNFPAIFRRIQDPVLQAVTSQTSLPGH

Columns and labels:
Experiment in all cases: co-IP
[1] = target: USP5, unmutated, expressed in HEK293T cells (parent of the binding-site mutants of Fig. 8I-J) (UniProt P45974)
[2] = target: ubiquitin-specific peptidase 5 (USP5), human, endogenous in AC16 cardiomyocytes (human (endogenous in AC16)) (UniProt P45974)
[3] = target: His-USP5, expressed in AC16 cells (UniProt P45974)
[4] = target: methyltransferase-like 1 (METTL1), mouse, endogenous in NMCM cells (mouse (endogenous in NMCM)) (UniProt Q9Z120)

Molecule: METTL1 in HEK293T cells (partner of the USP5 mutants, Fig. 8J) (from UniProt Q9UBP6 1-276) (enzyme)
- binding [1]: binds

Molecule: methyltransferase-like 1 (METTL1), human, endogenous in AC16 cardiomyocytes (from UniProt Q9UBP6 1-276) (enzyme)
- binding [2]: binds
- binding [3]: binds

B1: O-GlcNAc transferase (OGT), mouse, endogenous in NMCM cells and MEFs (enzyme, UniProt Q8CGY8 1-1046)
chain: MASSVGNVADSTEPTKRMLSFQGLAELAHREYQAGDFEAAERHCMQLWRQEPDNTGVLLLLSSIHFQCRRLDRSAHFSTLAIKQNPLLAEAYSNLGNVYKERGQLQEAIEHYRHALRLKPDFIDGYINLAAALVAAGDMEGAVQAYVSALQYNPDLYCVRSDLGNLLKALGRLEEAKACYLKAIETQPNFAVAWSNLGCVFNAQGEIWLAIHHFEKAVTLDPNFLDAYINLGNVLKEARIFDRAVAAYLRALSLSPNHAVVHGNLACVYYEQGLIDLAIDTYRRAIELQPHFPDAYCNLANALKEKGSVAEAEDCYNTALRLCPTHADSLNNLANIKREQGNIEEAVRLYRKALEVFPEFAAAHSNLASVLQQQGKLQEALMHYKEAIRISPTFADAYSNMGNTLKEMQDVQGALQCYTRAIQINPAFADAHSNLASIHKDSGNIPEAIASYRTALKLKPDFPDAYCNLAHCLQIVCDWTDYDERMKKLVSIVAEQLEKNRLPSVHPHHSMLYPLSHGFRKAIAERHGNLCLDKINVLHKPPYEHPKDLKLSDGRLRVGYVSSDFGNHPTSHLMQSIPGMHNPDKFEVFCYALSPDDGTNFRVKVMAEANHFIDLSQIPCNGKAADRIHQDGIHILVNMNGYTKGARNELFALRPAPIQAMWLGYPGTSGALFMDYIITDQETSPAEVAEQYSEKLAYMPHTFFIGDHANMFPHLKKKAVIDFKSNGHIYDNRIVLNGIDLKAFLDSLPDVKIVKMKCPDGGDNPDSSNTALNMPVIPMNTIAEAVIEMINRGQIQITINGFSISNGLATTQINNKAATGEEVPRTIIVTTRSQYGLPEDAIVYCNFNQLYKIDPSTLQMWANILKRVPNSVLWLLRFPAVGEPNIQQYAQNMGLPQNRIIFSPVAPKEEHVRRGQLADVCLDTPLCNGHTTGMDVLWAGTPMVTMPGETLASRVAASQLTCLGCLELIAKSRQEYEDIAVKLGTDLEYLKKIRGKVWKQRISSPLFNTKQYTMELERLYLQMWEHYAAGNKPDHMIKPVEVTESA
- binding [4]: binds
